In the experiment the target is T1, 3xFLAG-HA tagged PATZ1 (POZ/BTB and AT-Hook-Containing Zinc Finger Protein 1) (mouse) (UniProt Q5NBY9).
T1 sequence: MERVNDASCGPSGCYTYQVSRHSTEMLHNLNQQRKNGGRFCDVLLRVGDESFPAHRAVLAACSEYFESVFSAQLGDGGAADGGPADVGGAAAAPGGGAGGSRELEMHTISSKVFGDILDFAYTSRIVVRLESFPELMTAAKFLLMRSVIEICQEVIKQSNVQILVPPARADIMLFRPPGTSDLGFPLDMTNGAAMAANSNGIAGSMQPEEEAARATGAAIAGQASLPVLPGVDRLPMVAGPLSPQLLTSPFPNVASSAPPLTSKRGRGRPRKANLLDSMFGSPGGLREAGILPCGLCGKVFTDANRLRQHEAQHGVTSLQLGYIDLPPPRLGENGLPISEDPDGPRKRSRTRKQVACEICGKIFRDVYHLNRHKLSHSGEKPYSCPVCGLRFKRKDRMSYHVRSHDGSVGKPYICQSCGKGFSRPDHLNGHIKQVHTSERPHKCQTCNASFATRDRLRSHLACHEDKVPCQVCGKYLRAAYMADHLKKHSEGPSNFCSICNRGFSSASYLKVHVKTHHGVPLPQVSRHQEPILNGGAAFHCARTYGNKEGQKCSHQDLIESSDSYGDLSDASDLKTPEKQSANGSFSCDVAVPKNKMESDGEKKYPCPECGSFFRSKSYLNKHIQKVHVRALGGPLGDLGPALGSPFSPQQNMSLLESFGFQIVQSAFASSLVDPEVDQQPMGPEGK
Nature of the experiment: co-IP; nuclear extracts of FH-PATZ1 and E14 WT mESCs; NaCl diluted to 250 mM, 0.1% NP40; anti-FLAG M2 magnetic beads; bound proteins released with SDS loading buffer; western blot for RAD21, FLAG and CTCF.

These are yes or no findings as the source states them, for the method shown. In cells and extracts the contact can be indirect. Some entries that bind do so weakly or less than the wild type. Sequences can lack the tags named with a protein.

B1: RAD21 (protein, UniProt Q61550 1-635)
chain: MFYAHFVLSKRGPLAKIWLAAHWDKKLTKAHVFECNLESSVESIISPKVKMALRTSGHLLLGVVRIYHRKAKYLLADCNEAFIKIKMAFRPGVVDLPEENREAAYNAITLPEEFHDFDQPLPDLDDIDVAQQFSLNQSRVEEITMREEVGNISILQENDFGDFGMDDREIMREGSAFEDDDMLVSTSASNLLLEPEQSTSNLNEKMNHLEYEDQYKDDNFGEGNDGGILDDKLISNNDGGIFDDPPALSEAGVMLPEQPAHDDMDEDDNGSLGGPDSPDSVDPVEPMPTMTDQTTLVPNEEEAFALEPIDITVKETKAKRKRKLIVDSVKELDSKTIRAQLSDYSDIVTTLDLAPPTKKLMMWKETGGVEKLFFLPAQPLWNNRLLKLFTRCLTPLVPEDLRKRRKGGEADNLDEFLKEFENPEVPREEQQPQQQQPQPQRDVIDEPIIEEPSRLQDSVMEASRTTIEESAMPPPPPQGVKRKAGQIDPEPSIPPQQVEQMEIPPVELPPEEPPNICQLIPELELLPEKEKEKEKEKEEEEEEEDEDASGGDQDQEERRWNKRTQQMLHGLQRALAKTGAESISLLELCRNTNRKQAAAKFYSFLVLKKQQAIELTQEEPYSDIIATPGPRFHII
In the case of B1, the binding result is listed as “binds”.

(Values after paper PMC11613955.)
